Results reported in paper PMC7065907.
These are yes or no findings as the source states them, for the method shown. Binding seen in cells or lysates may run through a third protein. Some results given as binding are weak or reduced against the parent protein; the word gives no strength.

Amino acid sequences for entries named in this document (tags omitted).
UniProt Q9Y5T5: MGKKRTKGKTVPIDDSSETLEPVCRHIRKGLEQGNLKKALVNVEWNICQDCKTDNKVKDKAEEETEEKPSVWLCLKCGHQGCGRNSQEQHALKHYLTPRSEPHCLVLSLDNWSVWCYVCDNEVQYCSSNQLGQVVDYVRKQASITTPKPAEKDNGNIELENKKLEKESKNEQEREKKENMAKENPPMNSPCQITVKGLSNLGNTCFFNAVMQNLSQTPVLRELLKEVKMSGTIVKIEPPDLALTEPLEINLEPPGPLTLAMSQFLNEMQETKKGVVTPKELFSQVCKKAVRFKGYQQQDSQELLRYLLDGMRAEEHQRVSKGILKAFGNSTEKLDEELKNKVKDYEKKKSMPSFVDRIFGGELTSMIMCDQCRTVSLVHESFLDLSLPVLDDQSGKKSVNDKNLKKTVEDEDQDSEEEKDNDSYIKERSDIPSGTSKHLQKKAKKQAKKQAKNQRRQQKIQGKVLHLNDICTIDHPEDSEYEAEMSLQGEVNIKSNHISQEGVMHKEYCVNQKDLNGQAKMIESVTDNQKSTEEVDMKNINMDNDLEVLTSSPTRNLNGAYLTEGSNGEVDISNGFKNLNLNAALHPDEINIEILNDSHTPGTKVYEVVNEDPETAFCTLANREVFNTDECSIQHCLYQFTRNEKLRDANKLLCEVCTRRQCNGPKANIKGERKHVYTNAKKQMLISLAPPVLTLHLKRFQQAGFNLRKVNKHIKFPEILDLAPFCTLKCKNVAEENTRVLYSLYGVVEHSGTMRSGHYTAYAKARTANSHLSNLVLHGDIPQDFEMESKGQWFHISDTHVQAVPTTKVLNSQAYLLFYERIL

Tests used:
Experiment in all cases: pull-down; StrepTactin beads with lysates of tetracycline-induced HEK293 FlpIn T-REx cells expressing the tagged bait; 10 mM Tris pH 7.5, 100 mM KCl, 2 mM MgCl2, 0.5% NP-40, 1 mM DTT; 30 min at 4°C; eluates immunoblotted; in Figure 4E cells treated with control or USP16 siRNA for 72 hr
HASt-LTV1 (human) = target: T1, HASt-LTV1 (human) (UniProt Q96GA3)
T1 sequence: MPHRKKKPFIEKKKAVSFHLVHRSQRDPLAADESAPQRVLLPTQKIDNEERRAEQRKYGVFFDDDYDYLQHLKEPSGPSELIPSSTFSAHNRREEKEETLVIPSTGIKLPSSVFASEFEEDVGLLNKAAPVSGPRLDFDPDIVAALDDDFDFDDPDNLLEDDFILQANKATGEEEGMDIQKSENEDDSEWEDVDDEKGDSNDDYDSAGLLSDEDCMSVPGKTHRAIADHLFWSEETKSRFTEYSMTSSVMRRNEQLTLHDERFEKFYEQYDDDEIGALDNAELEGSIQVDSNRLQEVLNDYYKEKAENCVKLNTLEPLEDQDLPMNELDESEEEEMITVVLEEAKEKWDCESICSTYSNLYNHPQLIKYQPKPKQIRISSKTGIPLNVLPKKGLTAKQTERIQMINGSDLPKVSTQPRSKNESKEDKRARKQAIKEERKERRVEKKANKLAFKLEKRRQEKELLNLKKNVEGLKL

RIOK1(kd)-StHA (human) = target: T2, RIOK1(kd)-StHA (human) (UniProt Q9BRS2)
T2 sequence: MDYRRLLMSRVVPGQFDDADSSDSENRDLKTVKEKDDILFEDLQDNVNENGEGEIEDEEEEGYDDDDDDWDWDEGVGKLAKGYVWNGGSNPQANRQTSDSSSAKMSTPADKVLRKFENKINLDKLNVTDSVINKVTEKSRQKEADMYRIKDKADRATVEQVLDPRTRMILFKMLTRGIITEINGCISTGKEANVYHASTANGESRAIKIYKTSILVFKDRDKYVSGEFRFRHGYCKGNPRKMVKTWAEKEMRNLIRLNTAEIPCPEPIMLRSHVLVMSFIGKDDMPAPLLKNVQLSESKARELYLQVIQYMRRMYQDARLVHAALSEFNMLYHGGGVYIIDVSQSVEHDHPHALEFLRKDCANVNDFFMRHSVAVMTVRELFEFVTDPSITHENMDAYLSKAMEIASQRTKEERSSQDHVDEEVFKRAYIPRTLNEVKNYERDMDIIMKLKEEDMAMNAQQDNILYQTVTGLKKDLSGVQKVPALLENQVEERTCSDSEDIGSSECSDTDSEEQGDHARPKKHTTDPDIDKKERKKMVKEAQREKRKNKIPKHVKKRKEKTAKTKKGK

ENP1-StHA (human) = target: T3, ENP1-StHA (human) (UniProt Q13895)
T3 sequence: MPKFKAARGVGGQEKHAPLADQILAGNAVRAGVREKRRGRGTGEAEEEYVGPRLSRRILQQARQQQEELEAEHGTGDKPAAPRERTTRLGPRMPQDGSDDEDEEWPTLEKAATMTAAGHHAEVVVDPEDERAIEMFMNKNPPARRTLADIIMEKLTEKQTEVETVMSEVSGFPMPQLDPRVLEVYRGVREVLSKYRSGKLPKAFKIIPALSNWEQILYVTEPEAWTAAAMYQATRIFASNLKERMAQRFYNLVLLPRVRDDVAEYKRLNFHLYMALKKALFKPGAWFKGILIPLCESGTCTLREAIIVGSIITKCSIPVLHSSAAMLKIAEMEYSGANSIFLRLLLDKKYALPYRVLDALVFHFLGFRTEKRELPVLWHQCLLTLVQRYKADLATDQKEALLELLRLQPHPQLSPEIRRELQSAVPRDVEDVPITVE

Measured: binding

USP16 (from UniProt Q9Y5T5 1-823) (enzyme)
binds: HASt-LTV1 (human) | RIOK1(kd)-StHA (human) | ENP1-StHA (human)
